Data reported in PMC11905004.

Key:
CTB6^K - BD (rice) = assay: two-hybrid; point-to-point; CTB6^K in pGBKT7 (BD), partners in pGADT7 (AD), yeast strain AH109; growth on SD-Trp-Leu-His-Ade at 30 °C
CTB6^K - YC (rice) = assay: split reporter; BiFC; YC and YN fusions co-transformed into rice protoplasts, YFP signal by confocal microscopy 14-16 h after transfection
CTB6^K - GFP (rice) = assay: co-IP; tagged proteins co-expressed in rice protoplasts; total protein extract incubated with GFP-Nanoab-Agarose beads at 4 °C for 2 h; 50 mM Tris-HCl pH 7.5, 150 mM NaCl, 10 mM MgCl2, 2% NP-40, 1 mM DTT; immunoblot
CTB6^K - nLUC (rice) = assay: split reporter; split-LUC complementation; nLUC and cLUC fusions transiently co-expressed in N. benthamiana leaves, 1 mM D-luciferin after 3 days
CTB6^T - nLUC (rice) = assay: as above

B1: CATC - AD (protein, UniProt Q10S82 1-492)
chain: MDPYKHRPSSSFNGPLWSTNSGAPVWNNNNSLTVGSRGPILLEDYHLVEKLANFDRERIPERVVHARGASAKGFFEVTHDITHLTCADFLRAPGVQTPVIVRFSTVIHERGSPETLRDPRGFAIKFYTREGNWDLVGNNFPVFFIRDGMKFPDMVHSLKPNPKSHVQENWRILDFFSHHPESLHMFTFLFDDIGIPADYRHMDGSGVNTYTLVNRAGKSHYVKFHWKPTCGVKSLLDDEAVTVGGTNHSHATQDLYDSIAAGNFPEWKLFIQTIDPDHEDRFDFDPLDVTKTWPEDIVPLQPVGRMVLNRNIDNFFSENEQLAFCPGIIVPGIYYSDDKLLQTRIFSYSDTQRHRLGPNYLLLPPNAPKCAHHNNHYDGFMNFMHRDEEVDYFPSRYDPAKHAPRYPIPSATLTGRREKVVIAKENNFKQPGERYRSWDPARQDRFIKRWIDALSDPRLTHEIRSIWLSYWSQADRSLGQKLASRLSAKPSM
binding (CTB6^K - BD (rice)): binds

B3: CATA - AD (protein, UniProt Q0E4K1 1-492)
chain: MDPCKFRPSSSFDTKTTTTNAGAPVWNDNEALTVGPRGPILLEDYHLIEKVAHFARERIPERVVHARGASAKGFFECTHDVTDITCADFLRSPGAQTPVIVRFSTVIHERGSPETIRDPRGFAVKFYTREGNWDLLGNNFPVFFIRDGIKFPDVIHAFKPNPRSHVQEYWRVFDFLSHHPESLHTFFFLFDDVGIPTDYRHMDGFGVNTYTFVTRDAKARYVKFHWKPTCGVSCLMDDEATLVGGKNHSHATQDLYDSIAAGNFPEWKLFVQVIDPEEEERFDFDPLDDTKTWPEDEVPLRPVGRLVLNRNVDNFFNENEQLAFGPGLVVPGIYYSDDKMLQCRVFAYADTQRYRLGPNYLMLPVNAPKCAHHNNHYDGAMNFMHRDEEVDYYPSRHAPLRHAPPTPITPRPVVGRRQKATIHKQNDFKQPGERYRSWAPDRQERFIRRFAGELAHPKVSPELRAIWVNYLSQCDESLGVKIANRLNVKPSM
binding (CTB6^K - BD (rice)): binds

B4: CATA - YN (protein, UniProt Q0E4K1 1-492)
chain: MDPCKFRPSSSFDTKTTTTNAGAPVWNDNEALTVGPRGPILLEDYHLIEKVAHFARERIPERVVHARGASAKGFFECTHDVTDITCADFLRSPGAQTPVIVRFSTVIHERGSPETIRDPRGFAVKFYTREGNWDLLGNNFPVFFIRDGIKFPDVIHAFKPNPRSHVQEYWRVFDFLSHHPESLHTFFFLFDDVGIPTDYRHMDGFGVNTYTFVTRDAKARYVKFHWKPTCGVSCLMDDEATLVGGKNHSHATQDLYDSIAAGNFPEWKLFVQVIDPEEEERFDFDPLDDTKTWPEDEVPLRPVGRLVLNRNVDNFFNENEQLAFGPGLVVPGIYYSDDKMLQCRVFAYADTQRYRLGPNYLMLPVNAPKCAHHNNHYDGAMNFMHRDEEVDYYPSRHAPLRHAPPTPITPRPVVGRRQKATIHKQNDFKQPGERYRSWAPDRQERFIRRFAGELAHPKVSPELRAIWVNYLSQCDESLGVKIANRLNVKPSM
binding (CTB6^K - YC (rice)): binds

Continued, values first:

binding (CTB6^K - BD (rice)): binds
B2: CATB - AD (protein, UniProt Q0D9C4 1-492)
chain: MDPYKHRPSSGSNSTFWTTNSGAPVWNNNSALTVGERGPILLEDYHLIEKLAQFDRERIPERVVHARGASAKGFFEVTHDISHLTCADFLRAPGVQTPVIVRFSTVVHERGSPETLRDPRGFAVKFYTREGNFDLVGNNMPVFFIRDGMKFPDMVHAFKPSPKTNMQENWRIVDFFSHHPESLHMFSFLFDDVGIPLNYRHMEGFGVNTYTLINKDGKPHLVKFHWKPTCGVKCLLDDEAVTVGGTCHSHATKDLTDSIAAGNYPEWKLYIQTIDPDHEDRFDFDPLDVTKTWPEDIIPLQPVGRMVLNKNIDNFFAENEQLAFCPAIIVPGIHYSDDKLLQTRIFSYADTQRHRLGPNYLMLPVNAPKCAYHNNHHDGSMNFMHRDEEVNYFPSRFDAARHAEKVPIPPRVLTGCREKCVIDKENNFQQAGERYRSFDPARQDRFLQRWVDALSDPRITHELRGIWISYWSQCDASLGQKLASRLNLKPNM

binding (CTB6^K - GFP (rice)): binds
B5: CATA - Myc (protein, UniProt Q0E4K1 1-492)
chain: MDPCKFRPSSSFDTKTTTTNAGAPVWNDNEALTVGPRGPILLEDYHLIEKVAHFARERIPERVVHARGASAKGFFECTHDVTDITCADFLRSPGAQTPVIVRFSTVIHERGSPETIRDPRGFAVKFYTREGNWDLLGNNFPVFFIRDGIKFPDVIHAFKPNPRSHVQEYWRVFDFLSHHPESLHTFFFLFDDVGIPTDYRHMDGFGVNTYTFVTRDAKARYVKFHWKPTCGVSCLMDDEATLVGGKNHSHATQDLYDSIAAGNFPEWKLFVQVIDPEEEERFDFDPLDDTKTWPEDEVPLRPVGRLVLNRNVDNFFNENEQLAFGPGLVVPGIYYSDDKMLQCRVFAYADTQRYRLGPNYLMLPVNAPKCAHHNNHYDGAMNFMHRDEEVDYYPSRHAPLRHAPPTPITPRPVVGRRQKATIHKQNDFKQPGERYRSWAPDRQERFIRRFAGELAHPKVSPELRAIWVNYLSQCDESLGVKIANRLNVKPSM

binding (CTB6^K - nLUC (rice)): binds
binding (CTB6^T - nLUC (rice)): binds
B6: cLUC - CATA (protein, UniProt Q0E4K1 1-492)
chain: MDPCKFRPSSSFDTKTTTTNAGAPVWNDNEALTVGPRGPILLEDYHLIEKVAHFARERIPERVVHARGASAKGFFECTHDVTDITCADFLRSPGAQTPVIVRFSTVIHERGSPETIRDPRGFAVKFYTREGNWDLLGNNFPVFFIRDGIKFPDVIHAFKPNPRSHVQEYWRVFDFLSHHPESLHTFFFLFDDVGIPTDYRHMDGFGVNTYTFVTRDAKARYVKFHWKPTCGVSCLMDDEATLVGGKNHSHATQDLYDSIAAGNFPEWKLFVQVIDPEEEERFDFDPLDDTKTWPEDEVPLRPVGRLVLNRNVDNFFNENEQLAFGPGLVVPGIYYSDDKMLQCRVFAYADTQRYRLGPNYLMLPVNAPKCAHHNNHYDGAMNFMHRDEEVDYYPSRHAPLRHAPPTPITPRPVVGRRQKATIHKQNDFKQPGERYRSWAPDRQERFIRRFAGELAHPKVSPELRAIWVNYLSQCDESLGVKIANRLNVKPSM

No constants are given. Whether binding was seen depends on the method and setting. A result given as binding can be weak or reduced; the word gives no strength. For some of these results: Tags and fused reporters may be left off the sequences shown. For some of these results: Binding seen in cells or lysates may run through a third protein. Each block holds one binder with its values, some of them ahead of it.
